Data published in publication PMC9659096.
These are yes or no findings as the source states them, for the method shown. Binding seen in cells or lysates may run through a third protein. Some entries that bind do so weakly or less than the wild type. Tags and fused reporters may be left off the sequences shown.

Target: T1, sodium iodide symporter (NIS) with an extracellular triple HA tag (UniProt Q92911)
T1 sequence: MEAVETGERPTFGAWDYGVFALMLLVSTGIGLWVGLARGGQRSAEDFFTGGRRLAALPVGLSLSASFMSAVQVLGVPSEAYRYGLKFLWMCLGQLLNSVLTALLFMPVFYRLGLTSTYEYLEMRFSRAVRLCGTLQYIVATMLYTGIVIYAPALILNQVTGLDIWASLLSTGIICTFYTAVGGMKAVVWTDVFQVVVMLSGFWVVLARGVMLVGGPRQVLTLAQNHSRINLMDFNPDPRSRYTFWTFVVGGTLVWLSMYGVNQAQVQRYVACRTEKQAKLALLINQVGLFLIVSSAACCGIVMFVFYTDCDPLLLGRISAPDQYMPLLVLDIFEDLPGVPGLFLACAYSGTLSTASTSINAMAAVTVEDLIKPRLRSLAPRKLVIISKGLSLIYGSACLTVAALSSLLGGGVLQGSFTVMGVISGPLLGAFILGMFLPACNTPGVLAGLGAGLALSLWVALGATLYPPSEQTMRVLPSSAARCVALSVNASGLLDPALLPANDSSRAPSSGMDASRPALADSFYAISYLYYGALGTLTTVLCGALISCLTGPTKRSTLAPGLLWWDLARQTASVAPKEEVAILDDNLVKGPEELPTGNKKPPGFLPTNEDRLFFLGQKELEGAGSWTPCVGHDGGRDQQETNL
Test: co-IP; cell surface HA-NIS of HA-NIS-TPC1 cells in ice-cold PBS++ captured with rabbit anti-HA (4 ug/mL) coupled to Dynabeads G-protein beads; rabbit anti-goat IgG as control; partners detected by Western blot

B1: P120-catenin (CTNND1) (protein, UniProt O60716 1-968)
chain: MDDSEVESTASILASVKEQEAQFEKLTRALEEERRHVSAQLERVRVSPQDANPLMANGTLTRRHQNGRFVGDADLERQKFSDLKLNGPQDHSHLLYSTIPRMQEPGQIVETYTEEDPEGAMSVVSVETSDDGTTRRTETTVKKVVKTVTTRTVQPVAMGPDGLPVDASSVSNNYIQTLGRDFRKNGNGGPGPYVGQAGTATLPRNFHYPPDGYSRHYEDGYPGGSDNYGSLSRVTRIEERYRPSMEGYRAPSRQDVYGPQPQVRVGGSSVDLHRFHPEPYGLEDDQRSMGYDDLDYGMMSDYGTARRTGTPSDPRRRLRSYEDMIGEEVPSDQYYWAPLAQHERGSLASLDSLRKGGPPPPNWRQPELPEVIAMLGFRLDAVKSNAAAYLQHLCYRNDKVKTDVRKLKGIPVLVGLLDHPKKEVHLGACGALKNISFGRDQDNKIAIKNCDGVPALVRLLRKARDMDLTEVITGTLWNLSSHDSIKMEIVDHALHALTDEVIIPHSGWEREPNEDCKPRHIEWESVLTNTAGCLRNVSSERSEARRKLRECDGLVDALIFIVQAEIGQKDSDSKLVENCVCLLRNLSYQVHREIPQAERYQEAAPNVANNTGPHAASCFGAKKGKDEWFSRGKKPIEDPANDTVDFPKRTSPARGYELLFQPEVVRIYISLLKESKTPAILEASAGAIQNLCAGRWTYGRYIRSALRQEKALSAIADLLTNEHERVVKAASGALRNLAVDARNKELIGKHAIPNLVKNLPGGQQNSSWNFSEDTVISILNTINEVIAENLEAAKKLRETQGIEKLVLINKSGNRSEKEVRAAALVLQTIWGYKELRKPLEKEGWKKSDFQVNLNNASRSQSSHSYDDSTLPLIDRNQKSDKKPDREEIQMSNMGSNTKSLDNNYSTPNERGDHNRTLDRSGDLGDMEPLKGTTPLMQDEGQESLEEELDVLVLDDEGGQVSYPSMQKI
binding: binds

B2: VAV2 exchange factor (protein, UniProt P52735 1-878)
chain: MEQWRQCGRWLIDCKVLPPNHRVVWPSAVVFDLAQALRDGVLLCQLLHNLSPGSIDLKDINFRPQMSQFLCLKNIRTFLKVCHDKFGLRNSELFDPFDLFDVRDFGKVISAVSRLSLHSIAQNKGIRPFPSEETTENDDDVYRSLEELADEHDLGEDIYDCVPCEDGGDDIYEDIIKVEVQQPMIRYMQKMGMTEDDKRNCCLLEIQETEAKYYRTLEDIEKNYMSPLRLVLSPADMAAVFINLEDLIKVHHSFLRAIDVSVMVGGSTLAKVFLDFKERLLIYGEYCSHMEHAQNTLNQLLASREDFRQKVEECTLKVQDGKFKLQDLLVVPMQRVLKYHLLLKELLSHSAERPERQQLKEALEAMQDLAMYINEVKRDKETLRKISEFQSSIENLQVKLEEFGRPKIDGELKVRSIVNHTKQDRYLFLFDKVVIVCKRKGYSYELKEIIELLFHKMTDDPMNNKDVKKSHGKMWSYGFYLIHLQGKQGFQFFCKTEDMKRKWMEQFEMAMSNIKPDKANANHHSFQMYTFDKTTNCKACKMFLRGTFYQGYMCTKCGVGAHKECLEVIPPCKFTSPADLDASGAGPGPKMVAMQNYHGNPAPPGKPVLTFQTGDVLELLRGDPESPWWEGRLVQTRKSGYFPSSSVKPCPVDGRPPISRPPSREIDYTAYPWFAGNMERQQTDNLLKSHASGTYLIRERPAEAERFAISIKFNDEVKHIKVVEKDNWIHITEAKKFDSLLELVEYYQCHSLKESFKQLDTTLKYPYKSRERSASRASSRSPASCASYNFSFLSPQGLSFASQGPSAPFWSVFTPRVIGTAVARYNFAARDMRELSLREGDVVRIYSRIGGDQGWWKGETNGRIGWFPSTYVEEEGIQ
binding: no binding
